Data on two molecules can be found in publication PMC12092773.

The chains behind the UniProt entries cited, without tags or fusion partners. Residues count along the entry.
UniProt Q9P0V8, residues 23-285: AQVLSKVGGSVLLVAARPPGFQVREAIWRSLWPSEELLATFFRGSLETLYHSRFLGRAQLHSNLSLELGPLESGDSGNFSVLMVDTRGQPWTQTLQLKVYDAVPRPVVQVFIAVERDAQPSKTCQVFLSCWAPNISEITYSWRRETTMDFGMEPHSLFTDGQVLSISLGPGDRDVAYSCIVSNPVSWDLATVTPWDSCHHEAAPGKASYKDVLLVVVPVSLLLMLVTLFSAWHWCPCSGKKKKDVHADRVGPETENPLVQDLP

Experiment [1] addresses T1, Nerve injury-induced protein 2 (NINJ2) (human (endogenous in SH-SY5Y and HMC3)) (UniProt Q9NZG7).
T1 sequence: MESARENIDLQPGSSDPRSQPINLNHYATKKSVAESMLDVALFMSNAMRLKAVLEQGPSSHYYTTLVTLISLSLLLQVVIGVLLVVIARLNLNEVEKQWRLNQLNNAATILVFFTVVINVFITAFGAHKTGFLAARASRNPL
Kind of experiment: co-IP; lysates of Aβ1-42-treated SH-SY5Y cells and LPS-treated HMC3 cells; precleared, incubated overnight at 4 °C with antibodies against SLAMF8 or NINJ2, captured on rProtein A/G Plus MagPoly beads, Western blot; IgG control.

Experiment [2] addresses Signaling Lymphocytic Activation Molecule Family Member 8 (SLAMF8) (human (endogenous in SH-SY5Y and HMC3)) (UniProt Q9P0V8). The experiment is described as above.

Results are given in words; binding and its absence hold for the method and conditions named. In cells and extracts the contact can be indirect. Some binding calls cover weakened binding; strength is not graded here.

Consider “Signaling Lymphocytic Activation Molecule Family Member 8 (SLAMF8) (from UniProt Q9P0V8 23-285)”, for which the binding entry in experiment [1] is “binds”.

B1: Nerve injury-induced protein 2 (NINJ2) (protein, UniProt Q9NZG7 1-142)
chain: T1 sequence
Take B1: the binding entry in experiment [2] was “binds”.
